Assay results from patent publication US6525022B1, “Receptor specific atrial natriuretic peptides” (Genentech, Inc., priority 1993, dated 2003).
No constants are given. Whether binding was seen depends on the method and setting. Some binding calls cover weakened binding; strength is not graded here.

Target: T1, human natriuretic peptide receptor-A (human, UniProt P16066 33-1061)
T1 construct: whole, on cells; also called hNPR-A; human NPR-A
T1 sequence (looked up): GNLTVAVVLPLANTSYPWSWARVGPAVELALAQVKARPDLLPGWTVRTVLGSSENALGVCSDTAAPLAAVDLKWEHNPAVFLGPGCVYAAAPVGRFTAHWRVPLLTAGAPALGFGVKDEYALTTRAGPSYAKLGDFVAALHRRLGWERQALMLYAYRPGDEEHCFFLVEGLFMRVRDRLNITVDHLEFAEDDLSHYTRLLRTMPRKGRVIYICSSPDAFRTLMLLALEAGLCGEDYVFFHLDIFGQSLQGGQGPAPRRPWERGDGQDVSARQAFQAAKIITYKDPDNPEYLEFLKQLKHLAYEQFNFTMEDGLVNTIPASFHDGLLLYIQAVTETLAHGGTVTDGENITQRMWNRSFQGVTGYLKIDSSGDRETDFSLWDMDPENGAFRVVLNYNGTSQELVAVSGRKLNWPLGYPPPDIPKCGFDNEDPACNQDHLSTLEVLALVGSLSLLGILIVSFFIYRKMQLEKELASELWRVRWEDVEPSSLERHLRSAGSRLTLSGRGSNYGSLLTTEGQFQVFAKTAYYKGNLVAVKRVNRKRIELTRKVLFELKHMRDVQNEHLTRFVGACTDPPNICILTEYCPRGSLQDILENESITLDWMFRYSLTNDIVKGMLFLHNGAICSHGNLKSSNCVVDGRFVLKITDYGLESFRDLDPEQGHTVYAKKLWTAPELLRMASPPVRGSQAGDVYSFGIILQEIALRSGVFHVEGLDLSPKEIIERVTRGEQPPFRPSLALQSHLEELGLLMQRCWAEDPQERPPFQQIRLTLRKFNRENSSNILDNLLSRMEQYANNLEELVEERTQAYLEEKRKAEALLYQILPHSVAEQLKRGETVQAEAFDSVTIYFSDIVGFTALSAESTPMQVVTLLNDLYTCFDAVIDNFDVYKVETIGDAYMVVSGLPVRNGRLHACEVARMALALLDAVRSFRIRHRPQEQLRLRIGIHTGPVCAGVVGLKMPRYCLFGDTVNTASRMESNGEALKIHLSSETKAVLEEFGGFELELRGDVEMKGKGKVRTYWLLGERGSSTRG
Assay: analysis of variants in receptor binding

B1: hANF(1-28) G16R (peptide)
peptide: SLRRSSCFGGRMDRIRAQSGLGCNSFRY
For B1, the binding was “binds”.
